# According to PubChem BioAssay AID330 (DTP/NCI, 2004):
# The list does not hold the whole screen: it is rich in T/C values a quarter to a half above the control, in often repeated tests (any T/C) and in doses without a T/C. Further doses and runs are listed elsewhere. T/C gives the treated animals as a percentage of the vehicle group. Some doses have a count of surviving animals in place of a T/C: the source files T/C as zero there, which appears to mark a toxic dose or a test without result, not a measured value. Some survivor counts are full or nearly so, which does not show that the dose was tolerated: survival well below the control is almost never listed, so the zero probably covers shortened survival too. Counts of survivors are from the toxicity check (mostly the fifth day) where no day follows; animals may have died later. Schedule codes are those of the source, taken here to give the interval after Q, in days (D) or hours (H), and the number of doses after X. Marks such as (2×) stand for listed records that agree. Some molecules as drawn cover several salts, stereoisomers or complexes of the source; a dose is that of the sample tested. For survival time, the PubChem record calls one and a half times the control and up active, and a quarter to a half above the control has no call in these data; cut-offs in other NCI protocols can differ. Some entries hold several experiments; the results are listed from low to high. Some T/C values are followed by the survivors on the day toxicity was checked, most often the fifth; where none is given, no animal had died by that day.
# Tested on: P388 leukemia ip, CD2F1 mice, survival T/C
# Experiment: NCI In Vivo Anticancer Drug Screen. Data for tumor model P388 Leukemia (intraperitoneal) in CD2F1 (CDF1) mice
# Conditions: T/C endpoint: median survival time, higher T/C = longer survival
# [1] = dose: 100.0 mg/kg/injection, schedule: Q01DX009 (ip), vehicle: saline with Tween-80
# [2] = dose: 100.0 mg/kg/injection, schedule: Q01DX009 (ip), vehicle: saline
# [3] = dose: 200.0 mg/kg/injection, schedule: Q01DX009 (ip), vehicle: saline
smiles,measurement,setting,value
CC1(C)N=C(N)N=C(N)N1c1ccc(CCCCc2ccc(S(=O)(=O)F)cc2Cl)c(Cl)c1,T/C,"dose: 1.0 mg/kg/injection, schedule: Q03HX016 (ip), vehicle: other",126 % of control
same,T/C,"dose: 1.98 mg/kg/injection, schedule: Q01DX009 (ip), vehicle: other",133 % of control
same,T/C,"dose: 2.0 mg/kg/injection, schedule: Q03HX016 (ip), vehicle: other",139 % of control [9 of 10 alive]
same,T/C,"dose: 2.82 mg/kg/injection, schedule: Q01DX009 (ip), vehicle: other",133 % of control
same,T/C,"dose: 4.0 mg/kg/injection, schedule: Q03HX016 (ip), vehicle: other",143 % of control
same,T/C,"dose: 4.03 mg/kg/injection, schedule: Q01DX009 (ip), vehicle: other",135 % of control
same,T/C,"dose: 5.18 mg/kg/injection, schedule: Q01DX005 (ip), vehicle: Klucel (hydroxypropylcellulose) (HPC)",135 % of control
same,T/C,"dose: 5.76 mg/kg/injection, schedule: Q01DX009 (ip), vehicle: other",141 % of control
same,T/C,"dose: 6.25 mg/kg/injection, schedule: Q01DX009 (ip), vehicle: saline with Tween-80",137 and 142 % of control
same,T/C,"dose: 6.48 mg/kg/injection, schedule: Q01DX009 (ip), vehicle: Klucel (hydroxypropylcellulose) (HPC)",148 % of control
same,T/C,"dose: 8.0 mg/kg/injection, schedule: Q03HX016 (ip), vehicle: other",149 % of control
same,T/C,"dose: 8.23 mg/kg/injection, schedule: Q01DX009 (ip), vehicle: other",142 % of control
same,T/C,"dose: 11.76 mg/kg/injection, schedule: Q01DX009 (ip), vehicle: other",139 % of control [9 of 10 alive]
same,T/C,"dose: 12.5 mg/kg/injection, schedule: Q01DX009 (ip), vehicle: saline with Tween-80","146, 163 (2×), 174 % of control"
same,T/C,"dose: 14.4 mg/kg/injection, schedule: Q01DX005 (ip), vehicle: Klucel (hydroxypropylcellulose) (HPC)",145 % of control
same,survivor count,"dose: 16.0 mg/kg/injection, schedule: Q03HX016 (ip), vehicle: other",7 of 10
same,T/C,"dose: 18.0 mg/kg/injection, schedule: Q01DX009 (ip), vehicle: saline with Tween-80, evaluated on day 30","165, 171, 172 % of control (2×)"
same,T/C,"dose: 18.0 mg/kg/injection, schedule: Q01DX009 (ip), vehicle: saline with Tween-80, evaluated on day 45",156 and 191 % of control
same,survivor count,"dose: 24.0 mg/kg/injection, schedule: Q01DX009 (ip), vehicle: other",7 of 10
same,T/C,"dose: 25.0 mg/kg/injection, schedule: Q01DX009 (ip), vehicle: saline with Tween-80","130, 155, 168, 194 % of control"
same,T/C,"dose: 27.0 mg/kg/injection, schedule: Q01DX009 (ip), vehicle: saline with Tween-80, evaluated on day 30","161, 174, 176, 180, 185, 195, 218 % of control"
same,T/C,"dose: 27.0 mg/kg/injection, schedule: Q01DX009 (ip), vehicle: saline with Tween-80, evaluated on day 45","153, 166, 181, 194 % of control"
same,T/C,"dose: 27.0 mg/kg/injection, schedule: Q01DX009 (ip), vehicle: saline with Tween-80, evaluated on day 60",174 % of control
same,survivor count,"dose: 32.0 mg/kg/injection, schedule: Q01DX005 (ip), vehicle: other",0 of 10
same,T/C,"dose: 40.0 mg/kg/injection, schedule: Q01DX009 (ip), vehicle: saline with Tween-80, evaluated on day 30","162, 172, 173, 177, 186, 188, 191 % of control"
same,T/C,"dose: 40.0 mg/kg/injection, schedule: Q01DX009 (ip), vehicle: saline with Tween-80, evaluated on day 45","156, 178, 190, 194 % of control"
same,T/C,"dose: 40.0 mg/kg/injection, schedule: Q01DX009 (ip), vehicle: saline with Tween-80, evaluated on day 60",211 % of control
same,T/C,"dose: 50.0 mg/kg/injection, schedule: Q01DX009 (ip), vehicle: Klucel (hydroxypropylcellulose) (HPC)",127 % of control
same,survivor count,"dose: 50.0 mg/kg/injection, schedule: Q01DX009 (ip), vehicle: distilled water + Tween-80",4 of 5
same,T/C,"dose: 50.0 mg/kg/injection, schedule: Q01DX009 (ip), vehicle: saline with Tween-80","93, 99, 108, 190 % of control"
same,T/C,"dose: 60.0 mg/kg/injection, schedule: Q01DX009 (ip), vehicle: saline with Tween-80, evaluated on day 30","180, 189 (2×), 192, 200 (2×), 206 % of control"
same,T/C,"dose: 60.0 mg/kg/injection, schedule: Q01DX009 (ip), vehicle: saline with Tween-80, evaluated on day 45","111, 173, 177, 179, 190, 209 % of control"
same,T/C,"dose: 60.0 mg/kg/injection, schedule: Q01DX009 (ip), vehicle: saline with Tween-80, evaluated on day 60",194 % of control
same,survivor count,"dose: 64.0 mg/kg/injection, schedule: Q04DX002 (ip), vehicle: other",4 of 10
same,T/C,"dose: 75.0 mg/kg/injection, schedule: Q01DX009 (ip), vehicle: saline with Tween-80",144 % of control
same,T/C,"dose: 90.0 mg/kg/injection, schedule: Q01DX009 (ip), vehicle: saline with Tween-80, evaluated on day 30","161, 194, 204, 210 (2×), 217, 240 % of control"
same,T/C,"dose: 90.0 mg/kg/injection, schedule: Q01DX009 (ip), vehicle: saline with Tween-80, evaluated on day 45","125, 159, 185, 186, 192, 205 % of control"
same,T/C,"dose: 90.0 mg/kg/injection, schedule: Q01DX009 (ip), vehicle: saline with Tween-80, evaluated on day 60",206 % of control
same,survivor count,"dose: 100.0 mg/kg/injection, schedule: Q01DX009 (ip), vehicle: distilled water + Tween-80",0 of 5
same,T/C,[1],136 % of control
same,survivor count,[1],6 of 6 (2×)
same,T/C,"dose: 130.0 mg/kg/injection, schedule: Q01DX009 (ip), vehicle: saline with Tween-80, evaluated on day 30",128 and 186 % of control
same,T/C,"dose: 130.0 mg/kg/injection, schedule: Q01DX009 (ip), vehicle: saline with Tween-80, evaluated on day 45",100 and 211 % of control
same,T/C,"dose: 130.0 mg/kg/injection, schedule: Q01DX009 (ip), vehicle: saline with Tween-80, evaluated on day 60",252 % of control
same,survivor count,"dose: 300.0 mg/kg/injection, schedule: Q04DX003 (ip), vehicle: saline with Tween-80",5 of 6
same,survivor count,"dose: 450.0 mg/kg/injection, schedule: Q04DX003 (ip), vehicle: saline with Tween-80",5 of 6
CC(=O)NC1CC(C)(C)NC(C)(C)C1,survivor count,[2],6 of 6
CN(C)C12CCCCCCC1S(=O)(=O)C2 (stereo not drawn),survivor count,"dose: 200.0 mg/kg/injection, schedule: Q04DX002 (ip), vehicle: saline with Tween-80",3 of 6
same,survivor count,"dose: 400.0 mg/kg/injection, schedule: Q04DX002 (ip), vehicle: saline with Tween-80",0 of 6
CCOC(=O)N[C@H]1CCc2cc(O)c(OC)c(OC)c2-c2ccc(SC)c(=O)cc21,T/C,"dose: 2.5 mg/kg/injection, schedule: Q01DX009 (ip), vehicle: Klucel (hydroxypropylcellulose) (HPC)",130 % of control
same,T/C,"dose: 5.0 mg/kg/injection, schedule: Q01DX009 (ip), vehicle: Klucel (hydroxypropylcellulose) (HPC)",125 % of control
CC(C)[N+](C)(C)CC(O)COc1cccc2ccccc12 (stereo not drawn),survivor count,[2],2 of 6
same,survivor count,[3],0 of 6
CCCCCCCCCCCCCCCc1c(NC(C)(CC(C)(C)O)[P+](=O)O)c(=O)n(C)n1C (stereo not drawn),survivor count,[3],3 of 6
COc1ccc2nc3cc(Cl)ccc3c(NCC3CCCN4CCCCC34)c2c1 (stereo not drawn),survivor count,"dose: 200.0 mg/kg/injection, schedule: Q01DX005 (ip), vehicle: distilled water + Tween-80",0 of 6
COC(=O)C1CC(OC(C)=O)C(=O)[C@H]2C1(C)CC[C@H]1C(=O)O[C@H](c3ccoc3)CC12C (stereo partly drawn),survivor count,"dose: 152.0 mg/kg/injection, schedule: Q01DX005 (ip), vehicle: Klucel (hydroxypropylcellulose) (HPC)",6 of 6
COc1cc(C)c2sc3ccccc3c(=O)c2c1NCCN(C)C,T/C,"dose: 50.0 mg/kg/injection, schedule: Q01DX009 (ip), vehicle: saline, evaluated on day 20",106 % of control
same,T/C,"dose: 50.0 mg/kg/injection, schedule: Q01DX009 (ip), vehicle: saline, evaluated on day 30","117 [5 of 6 alive], 119, 122 % of control"
same,T/C,[1],127 % of control [5 of 6 alive]
same,survivor count,[2],5 of 5
same,T/C,"dose: 200.0 mg/kg/injection, schedule: Q01DX009 (ip), vehicle: saline with Tween-80",129 % of control
same,survivor count,[3],1 of 6
COC(=O)C[N+](C)(C)Cc1ccccc1,survivor count,"dose: 200.0 mg/kg/injection, schedule: Q01DX009 (ip), vehicle: DMSO",0 of 6
